A short description of series [1]: Photographic performance (Dmin, Dmax, contrast) before and after storage of heat-developed image recording material. As to conditions: for Contrast After storage / Dmax After storage / Dmin After storage: stored at 50° C. for 3 days.
Series [2] is described as follows: Development humidity dependency, contrast, sensitivity, Dmin and Dmax of heat-developed image recording material. As to conditions: for Dmax / Dmin: 25° C. and relative humidity of 50%; for Variation of line width (development humidity dependency): 30° C./75% RH vs 20° C./20% RH, exposed at line width of 60 μm; for Sensitivity: relative value of reciprocal of exposure giving density higher than Dmin by 1.5.

Setting [3] is: Table 1, addition amount 5 mmol/Agmol.
Setting [4] is: Table 1, addition amount 7 mmol/Agmol.
Setting [5] is: Table 1, addition amount 30 mmol/Agmol.
Where [6] appears, read: Table 3, addition amount 30 mmol/Agmol.
Setting [7] is: Table 3, addition amount 25 mmol/Agmol.

Structures are written as SMILES.

Take `O=C1/C(=C/[O-])N=C(c2cc(C(F)(F)F)cc(C(F)(F)F)c2)N1c1ccc(Cl)cc1.[Na+]` [Compound A-6]: in series [1] (setting [3]), the “Contrast Before storage” value came to 20.5, the “Dmax Before storage” value was 4.5, the “Dmin Before storage” value was found to be 0.13 and the “Contrast After storage” value stood at 19.0. For the same molecule, in series [1] (setting [3]), the “Dmax After storage” value is given as 4.3 and the “Dmin After storage” value stood at 0.16.

On to `CCCCCCCCCCCCNc1ccc(N2C(=O)/C(=C\[O-])N=C2C(F)(F)F)cc1.[K+]` [Compound A-18], for which, in series [1] (setting [4]), the “Contrast Before storage” value is on record as 20.0, the “Dmax Before storage” value worked out at 4.2, the “Dmin Before storage” value was 0.12 and the “Contrast After storage” value is on record as 19.5. Besides, in series [1] (setting [4]), the “Dmax After storage” value came out at 4.1 and the “Dmin After storage” value came out at 0.13.

As to `CCCCCCCCCCCCC1(CCCCCCCCCCCC)C(=O)OC(=C[O-])C1=O.[Na+]` [Compound D-28], in series [2] (addition amount 5 mmol/Agmol), the Contrast was 21.5, the Dmax was found to be 4.50, the Dmin worked out at 0.12 and the “Variation of line width (development humidity dependency)” value (shortened to “Variation of line width”) turned out to be 6.4 μm. The molecule also displayed a Sensitivity in series [2] (addition amount 5 mmol/Agmol) of 1.49.

With `CCCCCCCCCCCCNC(=O)c1ccc(Cl)c(C2=N/C(=C/[O-])C(=O)C2(C)C)c1.[Na+]` [Compound D-44], in series [2] (addition amount 5 mmol/Agmol), the Contrast turned out to be 18.5, the Dmax worked out at 4.25, the Dmin is 0.14 and the “Variation of line width” value was determined as 8.8 μm. In series [2] (addition amount 5 mmol/Agmol), this molecule returned a Sensitivity of 1.47.

`CCCCCCCCCCCCc1cc(CCCCCCCCCCCC)cc(N2N=C/C(=C/[O-])C2=O)c1.[K+]` [Compound R-1]: in series [1] (setting [5]), the “Contrast Before storage” value is “Measurement was”, the “Dmax Before storage” value came out at 2.8, the “Dmin Before storage” value came to 0.14 and the “Contrast After storage” value is “Measurement was”. In addition, in series [1] (setting [5]), the “Dmax After storage” value came out at 2.7 and the “Dmin After storage” value stood at 0.15.

`CCCCCCCCCCCCCCCc1cccc(CCCN2C(=O)/C(=C\[O-])c3ccccc32)c1.[Na+]` [Compound R-2]: in series [1] (setting [3]), the “Contrast Before storage” value is on record as 16.5, the “Dmax Before storage” value was found to be 3.9, the “Dmin Before storage” value is recorded as 0.13 and the “Contrast After storage” value was “Measurement was”. Moreover, in series [1] (setting [3]), the “Dmax After storage” value was 3.3 and the “Dmin After storage” value was found to be 1.1.

As for `CN1C(=O)C(=C[O-])N=C1c1ccccc1.[Na+]` [RF-1], in series [2] (addition amount 5 mmol/Agmol), the Contrast stood at 13.4, the Dmax is reported as 4.20, the Dmin was 0.13 and the “Variation of line width” value is on record as 14.2 μm. In series [2] (addition amount 5 mmol/Agmol), this molecule showed a Sensitivity of 1.33. In series [2] (addition amount 20 mmol/Agmol), the Contrast was found to be 16.8, the Dmax is on record as 3.96, the Dmin amounted to 0.17 and the “Variation of line width” value stood at 17.6 μm. Besides, the Sensitivity in series [2] (addition amount 20 mmol/Agmol) stood at 1.40.

`CCO/C=C1/N=C(c2ccccc2)OC1=O` [RF-2]: in series [2] (addition amount 5 mmol/Agmol), the Contrast came to 12.2, the Dmax is listed as 3.22, the Dmin was 0.15 and the “Variation of line width” value was determined as 12.4 μm. The Sensitivity in series [2] (addition amount 5 mmol/Agmol) was 1.25. Besides, in series [2] (addition amount 20 mmol/Agmol), the Contrast was 15.9, the Dmax is 4.01, the Dmin came to 0.22 and the “Variation of line width” value was 15.3 μm. The Sensitivity in series [2] (addition amount 20 mmol/Agmol) amounted to 1.35.

Turning to `COc1ccc(NNC=O)cc1` [R′-1], in series [1] (setting [6]), the “Contrast Before storage” value is 17.2, the “Dmax Before storage” value came to 3.8, the “Dmin Before storage” value is given as 0.14 and the “Contrast After storage” value is on record as 9.1. In series [1] (setting [6]), the “Dmax After storage” value was 3.4 and the “Dmin After storage” value is listed as 0.23.

Regarding `CCO/C=C1\N=C(c2ccccc2)N(C)C1=O` [R′-5], in series [1] (setting [7]), the “Contrast Before storage” value is 16.0, the “Dmax Before storage” value was 3.9, the “Dmin Before storage” value was 0.13 and the “Contrast After storage” value amounted to 11.0. Moreover, in series [1] (setting [7]), the “Dmax After storage” value came to 3.2 and the “Dmin After storage” value turned out to be 0.19.

Source of the values: patent US6746835B2, “Thermally processed image recording material” (Fuji Photo Film Co., Ltd., priority 2001, dated 2004).
